In the supplement of paper PMC3334620:
In all, about 33,000 sequences were measured (“E-score (-0.5 to 0.5)”: median about -0.0034, highest 2% from about 0.25 on). This is one part of the list.

Each sequence was assayed against T1, Yap3 (UniProt P38749) (assay: PBM E-score (8-mer binding enrichment) (E-score (-0.5 to 0.5)); higher = stronger / more preferred TF binding). Conditions: protein concentration: 100 nM; construct: GST-full length.
T1 sequence: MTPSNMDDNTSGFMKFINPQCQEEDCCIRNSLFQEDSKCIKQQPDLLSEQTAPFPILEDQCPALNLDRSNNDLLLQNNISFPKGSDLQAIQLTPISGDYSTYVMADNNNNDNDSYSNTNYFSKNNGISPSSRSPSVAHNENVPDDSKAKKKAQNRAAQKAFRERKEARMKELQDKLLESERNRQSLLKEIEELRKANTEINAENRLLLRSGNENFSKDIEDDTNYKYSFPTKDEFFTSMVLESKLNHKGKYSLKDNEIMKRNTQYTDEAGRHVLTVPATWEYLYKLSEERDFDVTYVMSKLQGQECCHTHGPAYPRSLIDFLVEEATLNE
In short: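 Masliner-normalised scans of fluorescent anti-GST signal were the basis for scoring. That signal came from GST-tagged yeast transcription factors applied at about 100-200 nM to double-stranded universal all-10-mer Agilent arrays on fresh or once-stripped slides. Each ungapped eight-base word, pooled with its reverse complement, received an E-score from the Universal PBM Analysis Suite.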

| Sequence | PBM E-score |
| --- | --- |
| AAGAACCA | 0.0613 |
| AATACGCT | 0.121 |
| AATTCAGT | -0.00871 |
| CAGGGAAC | -0.0715 |
| TGCGACCA | 0.115 |
| GGCTCCGA | -0.0527 |
| AAATGTGC | 0.197 |
| CATAATTC | 0.23 |
| ACGAGTCA | -0.168 |
| AAATGTAC | 0.174 |
| GCCCACGC | -0.141 |
| CGTCTTCA | -0.0385 |
| ACGGGTGA | -0.038 |
| AGTGATCC | -0.0505 |
| TAAACTAA | 0.282 |
| CGAAGAAA | 0.136 |
| GCTGTTTA | 0.142 |
| GATCCACA | -0.0248 |
| AAATTCCG | 0.205 |
| TGCCGGAA | -0.0251 |
| CCTCTCCA | -0.372 |
| CAGAATGC | 0.0227 |
| AGCCGGTC | -0.191 |
| ACACTATC | 0.165 |
| GACGACTA | -0.0185 |

| Sequence | PBM E-score |
| --- | --- |
| TCACACCA | 0.0958 |
| CGTAGTGC | -0.0356 |
| CCGTGGTC | -0.202 |
| GGAAGCCA | -0.193 |
| CCGCACCA | -0.164 |
| CAGATAGA | -0.0499 |
| CCGAGCAA | -0.0253 |
| GATATGCC | -0.0864 |
| CGAGAACA | -0.0697 |
| CCCCAGTA | -0.148 |
| GTCTTAAC | 0.0396 |
| CAATTTAC | 0.175 |
| CCGGGAGA | -0.159 |
| ATAGGCTC | -0.00307 |
| CCAAGAGC | -0.103 |
| CCGAAACG | -0.136 |
| ACGCCCCA | -0.0847 |
| CTTCTTGC | 0.1 |
| CGGCGGAC | -0.176 |
| GGGAAGCA | -0.178 |
| ACACTGGC | -0.0732 |
| CGCCAGCC | -0.134 |
| ACAGTTCC | -0.00592 |
| AAGACAAT | 0.204 |
| CCTTCTAC | 0.0294 |

| Sequence | PBM E-score |
| --- | --- |
| AATGTACG | -0.0174 |
| AGTATAGA | 0.149 |
| CGCGGCCG | -0.236 |
| GTGCTTCA | 0.155 |
| AATGCCCA | -0.0376 |
| GCAACTGC | 0.0795 |
| CCAGAGAA | 0.0294 |
| ACTTGGGG | -0.104 |
| GACAAACC | 0.0467 |
| CAAAAAAC | 0.151 |
| ACAATAAG | 0.0953 |
| GCCCATTA | -0.0925 |
| ATCTCGGC | -0.0346 |
| CGTTCCAG | -0.0295 |
| TACAGAGA | -0.0777 |
| AGCTTACT | 0.0983 |
| TACGAAGA | 0.107 |
| AGCTTAGA | 0.109 |
| AGGTGATA | 0.0445 |
| CGTCAACA | 0.0161 |
| CAAGAGTG | -0.0802 |
| CACCCGGG | -0.216 |
| CCAGAAAG | -0.0181 |
| AAGGCAGC | -0.0167 |
| ACATATTG | 0.11 |

5 records drawn at random from those above:

| Sequence | PBM E-score |
| --- | --- |
| AAATTCCG | 0.205 |
| ATAGGCTC | -0.00307 |
| AAGACAAT | 0.204 |
| ACAGTTCC | -0.00592 |
| CGCGGCCG | -0.236 |

Later entries.

| Sequence | PBM E-score |
| --- | --- |
| CGGGAGCC | -0.193 |
| CCTGTCCG | -0.0639 |
| ACCCAAAG | -0.117 |
| GTGTAGCA | -0.109 |
| CCTGCTTC | -0.175 |
| CATATGCA | 0.118 |
| GTGCAAAC | -0.0512 |
| GGAAGGCC | -0.374 |
| CATAATGA | 0.118 |
| GGGCCCGA | -0.255 |
| CCTTGTAG | -0.276 |
| ATTCGGAG | 0.00518 |
| TATTTACA | 0.158 |
| CTCCCCCC | -0.293 |
| ATCGACTG | 0.0906 |
| AGCTCTTC | 0.0209 |
| GAAGTCAC | -0.126 |
| CTCTCAAG | -0.0909 |
| ATTGTGCA | 0.164 |
| ATCAATCG | 0.146 |
| CCGGGCAC | -0.3 |
| AGGCACCC | -0.188 |
| CAGCAACA | 0.208 |
| CGATGGTC | -0.111 |
| AACGGGTG | -0.00393 |

| Sequence | PBM E-score |
| --- | --- |
| CCCCGGCG | -0.254 |
| ACCCGCTG | -0.175 |
| CTCCGACC | -0.292 |
| AAAGCTCC | -0.102 |
| AACACTCC | -0.0127 |
| AACGTAGA | 0.169 |
| CTCTTGCC | -0.0695 |
| ATCCGCAA | -0.00691 |
| CAACTCCG | -0.073 |
| AGCTAAGC | -0.223 |
| AATTTGTC | 0.138 |
| ATGCTCTA | -0.128 |
| CGGGTGAG | -0.136 |
| TATAAGAA | 0.0736 |
| CCTGCCAC | -0.111 |
| TCCGACAA | 0.0797 |
| CTTTTCGC | 0.0914 |
| TCAAAACA | 0.194 |
| CGGTGTCA | -0.141 |
| ACTAGATG | 0.0209 |
| GAATGAAA | 0.157 |
| CTTATAAG | 0.0276 |
| CATTCGAA | 0.161 |
| ATGGTCTG | -0.00164 |
| GATGGGAC | -0.196 |

| Sequence | PBM E-score |
| --- | --- |
| GATGTAAC | 0.0665 |
| ATTCGTTG | 0.17 |
| GCTTACCC | -0.0567 |
| AAGTATGC | -0.046 |
| ATATTTCG | 0.141 |
| AAACGGGC | 0.0931 |
| TCACTCAA | 0.00948 |
| ATGCCGTC | -0.0725 |
| GCTTAATA | 0.17 |
| CCTTGCAA | -0.059 |
| GCTGTGAA | 0.101 |
| TATGCTCA | 0.159 |
| ATGTCCAA | 0.0696 |
| TGCGTAAA | 0.132 |
| AGTAGTCG | -0.00146 |
| ATTCAAAC | 0.109 |
| ACGGGAGA | -0.0795 |
| ACAGGTTA | 0.00932 |
| CCCAACCA | -0.0429 |
| AATTTTAT | 0.266 |
| CACCATTC | -0.0305 |
| ACCAATGA | 0.0693 |
| AGGAGTAC | -0.0964 |
| ACCGGGAC | -0.162 |
| GTGACGAA | 0.0395 |

| Sequence | PBM E-score |
| --- | --- |
| CCCAAGGG | -0.327 |
| AATAAGAG | 0.195 |
| AGTCCGAA | -0.0167 |
| ATAGTTGG | 0.00071 |
| CCCCACCG | -0.223 |
| GATATTGC | 0.0968 |
| CGGGCATC | -0.172 |
| CGGAAGTA | 0.00202 |
| GATAATAA | 0.113 |
| CCGTAGAG | -0.111 |
| ATGCCCAG | -0.24 |
| CGCTAAAC | -0.0491 |
| CAGTAAGC | 0.0593 |
| AGGTGCCG | -0.101 |
| GCCGAAGC | -0.186 |
| AATTCATC | -0.0039 |
| GTTCACCA | -0.0756 |
| GCGAAGAC | -0.0705 |
| CGTTCTTC | 0.0864 |
| GAAAACCC | -0.0324 |
| AATGAGCA | -0.00708 |
| AGCCCCAG | -0.212 |

Another view of some results above.
Sequence | PBM E-score
ATGCCCAG | -0.24
CGCTAAAC | -0.0491
